This assay concerns the target T1, GFP-CD59 (C94S) (UniProt P13987).
T1 sequence (chain, GPI anchor (GPI-anchored protein)): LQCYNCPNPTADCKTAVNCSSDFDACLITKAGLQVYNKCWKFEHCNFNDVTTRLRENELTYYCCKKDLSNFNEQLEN
As to the kind of experiment: co-IP.

The chains behind the UniProt entries cited, without tags or fusion partners. Residues count along the entry.
UniProt Q63524, residues 21-201: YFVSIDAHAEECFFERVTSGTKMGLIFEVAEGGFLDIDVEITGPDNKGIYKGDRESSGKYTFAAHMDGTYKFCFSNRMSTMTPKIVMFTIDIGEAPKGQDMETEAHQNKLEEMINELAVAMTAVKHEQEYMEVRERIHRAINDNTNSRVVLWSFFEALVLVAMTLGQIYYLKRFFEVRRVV

Results are given in words; binding and its absence hold for the method and conditions named. Binding seen in cells or lysates may run through a third protein. Some results given as binding are weak or reduced against the parent protein; the word gives no strength. Sequences can lack the tags named with a protein.

For the molecule TMED2 (from UniProt Q63524 21-201), the binding result is “binds”.

B1: calnexin (protein, UniProt P35565 21-591)
chain: HDGHDDDMIDIEDDLDDVIEEVEDSKSKSDTSTPPSPKVTYKAPVPTGEVYFADSFDRGSLSGWILSKAKKDDTDDEIAKYDGKWEVDEMKETKLPGDKGLVLMSRAKHHAISAKLNKPFLFDTKPLIVQYEVNFQNGIECGGAYVKLLSKTSELNLDQFHDKTPYTIMFGPDKCGEDYKLHFIFRHKNPKTGVYEEKHAKRPDADLKTYFTDKKTHLYTLILNPDNSFEILVDQSVVNSGNLLNDMTPPVNPSREIEDPEDRKPEDWDERPKIADPDAVKPDDWDEDAPSKIPDEEATKPEGWLDDEPEYIPDPDAEKPEDWDEDMDGEWEAPQIANPKCESAPGCGVWQRPMIDNPNYKGKWKPPMIDNPNYQGIWKPRKIPNPDFFEDLEPFRMTPFSAIGLELWSMTSDIFFDNFIISGDRRVVDDWANDGWGLKKAADGAAEPGVVGQMLEAAEERPWLWVVYILTVALPVFLVILFCCSGKKQSNAMEYKKTDAPQPDVKDEEGKEEEKNKGDEEEEEEKLEEKQKSDAEEDGGTGSQDEEDSKPKAEEDEILNRSPRNRKPRRE
For B1, the binding result was “binds”.

B2: TMP21 (protein, UniProt Q63584 32-219)
chain: ISFHLPVNSRKCLREEIHKDLLVTGAYEITDQSGGAGGLRTHLKITDSAGHILYAKEDATKGKFAFTTEDYDMFEVCFESKGTGRIPDQLVILDMKHGVEAKNYEEIAKVEKLKPLEVELRRLEDLSESIVNDFAYMKKREEEMRDTNESTNTRVLYFSIFSMFCLIGLATWQVFYLRRFFKAKKLIE
For B2, the binding result is “binds”.

B3: TMED9 (protein, UniProt Q5I0E7 38-235)
chain: LYFHIGETEKKCFIEEIPDETMVIGNYRTQLYDKQREEYQPATPGLGMFVEVKDPEDKVILARQYGSEGRFTFTSHTPGEHQICLHSNSTKFSLFAGGMLRVHLDIQVGEHANDYAEIAAKDKLSELQLRVRQLVEQVEQIQKEQNYQRWREERFRQTSESTNQRVLWWSILQTLILVAIGVWQMRHLKSFFEAKKLV
Consider B3, for which the binding result is on record as “binds”.

These data come from publication doi:10.1101/2024.09.27.615420.
